For one sequence, binding signal results are on record in article PMC5996148.

Common to all, as to test: protein microarray (ProtoArray v5.0), streptavidin-Alexa Fluor 647
What all share (settings): 3'-biotin; 20 mM Tris (pH 7.5), 5 mM MgCl2, 100 mM KCl, 0.1% Tween-20, A/T-rich and random oligonucleotide blockers; temperature not stated; high values mean tight binding

Assay [1] has as its system Glucose-fructose oxidoreductase domain-containing protein 1 (human).
Assay [2] concerns Glutamate decarboxylase 1 (human).
Assay [3] deals with Glutamate decarboxylase 2 (human).
In assay [4] the test system is Glutaminyl-tRNA synthetase (human).
The subject of assay [5] is Glutathione S-transferase A4 (human).
Assay [6] relates to Glutathione S-transferase Mu 5 (human).
For assay [7], the system named is Glycolipid transfer protein (human).
Assay [8] has as its system Glycosyltransferase 1 domain-containing protein 1 (human).
Assay [9] deals with Guanine nucleotide exchange factor for Rab3A (human).
In assay [10] the test system is Guanine nucleotide-binding protein subunit alpha-11 (human).

Values joined by “and” are separate entries in the source; they are usually repeats but may differ in a detail not shown here. Equal values may be shown once. The list shows a part of the results.

Turning to “GGGGACAGGGGTATGGGGAGGGG [G4-3 biotinylated (CtG)]”, the binding signal was -0.343 z-score in assay [1]; -0.321 z-score in assay [2]; -0.34 z-score in [3]; -0.332 z-score and -0.344 z-score in [4]; -0.339 z-score in assay [5]; -0.331 z-score in assay [6]. The binding signal in assay [7] is -0.344 z-score; in assay [8] it was -0.309 z-score; in [9] it was -0.306 z-score; in assay [10] it was -0.322 z-score.
